# Reference: PubChem BioAssay AID2810 (NMMLSC, 2010)
# This is one part of the list. These are further read-outs of the screen, such as a control signal, another cell line or another target. No call is given for them.
# Assay: modulators of CD8 T cell-vesicle binding, confirmation, cherry-picked primary hits, two concentrations (AID 2810);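 further: lower values mean blocking of vesicle binding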;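 on percent response (vesicle binding): ratio of mean FL2 vesicle stain of CD8+ cells to that row's control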
# Conditions: 2C CD8+ T cell-vesicle binding, flow cytometry; for double positive events: CD8+/vesicle+ events
# [1] = at 15.4 µM, stronger effect = lower value
Compound,double positive events (at 7.7 µM) [%],double positive events [1] [%],percent response (vesicle binding) (at 7.7 µM) [%]
COC(=O)c1ccc(N2CCOCC2)c(NC(=O)c2ccco2)c1,19.1,10.6,237
C=CCc1ccc(OCCOCCOc2cccc3cccnc23)c(OC)c1,12.6,16.8,156
O=C(c1cc(Cl)ccc1Cl)N1CCN(c2ccccn2)CC1,7.4,38.6,228
O=C(CN1CCN(C2CCCCC2)CC1)Nc1ccccc1N1CCCCC1,7.6,21.9,188
COc1cc(C(=O)Nc2nnc(-c3sccc3C)s2)cc(OC)c1OC,15.2,11.1,576
Cc1nc(SCC(=O)N2CCNC2=O)c2ccccc2n1,17.9,10.6,667
CCOc1ccc(Cl)cc1/C=N/NC(=O)c1ccccc1,24.1,30.4,335
Cc1[nH]c2ccc(F)cc2c(=O)c1SC(F)(F)C(F)C(F)(F)F (centres undefined),10.7,28.5,266
CCCCN(C)CCCNC(=O)Cn1c(=O)sc2ccccc21,16.5,10.6,215
CSc1ccccc1NC(=O)CSc1cccc[n+]1[O-],15.1,35.6,198
COC(=O)c1ccc2c(=O)[nH]c(CSc3nc(-c4ccc(F)cc4)cs3)nc2c1,11.9,29.3,189
Cc1cc(C(=O)Nc2ccc(Br)cn2)sc1C,13.8,16.5,401
COCCn1c(C)cc(C(=O)CN2C(=O)NC3(CCCCCCC3)C2=O)c1C,13.7,14.2,230
COc1ccc(C2=NS(=O)(=O)N(C)C(C(=O)N(C)Cc3ccccc3)=C2)cc1OC,8.8,19.1,170
COc1cccc(CN2CCN(S(=O)(=O)c3ccc(Cl)s3)CC2)c1,11.2,32.2,192
COc1ccc(CNC(=O)c2nnn(Cc3ccc(OC)cc3)c2N)cc1,35.5,13,128
CCc1ccc(S(=O)(=O)NCc2cccs2)cc1,33.6,23.1,293
CN(C(=O)COc1ccc(Oc2ccccc2)cc1)C1CCS(=O)(=O)C1 (centres undefined),9.1,26.8,247
COc1cc(/C=N/NC(=O)c2ccc(NS(=O)(=O)c3cccs3)cc2)cc(OC)c1O,12.7,10.2,422
O=C(COC(=O)c1ccc(S(=O)(=O)N2CCOCC2)cc1)Nc1ccccc1OC(F)F,12.3,12.5,138
Cc1ccc(NC(=O)CN2CCCC2c2cccs2)cc1S(=O)(=O)N1CCCCC1 (centres undefined),8.1,23.1,226
CN1CCN(S(=O)(=O)c2ccc3[nH]c(=O)oc3c2)CC1,9.7,11.1,151
CC(C)NC(=O)NC(=O)CSc1nnc(COc2ccccc2F)n1C(C)C1CC2CCC1C2 (centres undefined),18.6,15.1,263
C[C@H](CO)N1C[C@H](C)[C@@H](CN(C)C(=O)Nc2ccccc2)Oc2ccc(NC(=O)c3ccncc3)cc2C1=O,12.2,16.8,453
O=C1CC(c2ccc(Br)cc2)NC(c2ccc(Br)cc2)C1c1ccccc1 (centres undefined),27.1,10.8,172
CC1CC(NNC(=O)c2ccccc2)=Nc2ccccc2N1C (centres undefined),15.1,34,254
CCCNC(=O)C(Cc1ccccc1F)NC(=O)c1ccccn1 (centres undefined),35.6,26.4,281

# 3 entries from above, arranged by molecular weight, low to high.
Compound,double positive events (at 7.7 µM) [%],double positive events [1] [%],percent response (vesicle binding) (at 7.7 µM) [%]
COCCn1c(C)cc(C(=O)CN2C(=O)NC3(CCCCCCC3)C2=O)c1C,13.7,14.2,230
O=C(COC(=O)c1ccc(S(=O)(=O)N2CCOCC2)cc1)Nc1ccccc1OC(F)F,12.3,12.5,138
CC(C)NC(=O)NC(=O)CSc1nnc(COc2ccccc2F)n1C(C)C1CC2CCC1C2 (centres undefined),18.6,15.1,263

# (further entries)

Compound,double positive events (at 7.7 µM) [%],double positive events [1] [%],percent response (vesicle binding) (at 7.7 µM) [%]
CC(C)CN(Cc1cc(=O)oc2cc3c(cc12)CCCC3)CC(C)C,8.4,27.3,95.5
O=C(O)c1cccc2c1C(=O)c1ccc(N3CCCC3)cc1S2(=O)=O,37.3,13.4,388
Cc1ccc(C)c(OCc2cc(C(=O)N(C)Cc3nccn3C)no2)c1,11,34.9,170
Cc1ccc(S(=O)(=O)N(C)CC(=O)N2CCc3ccccc32)cc1,38.6,15.7,296
O=C1C2C3c4ccccc4C(c4ccccc43)[C@@H]2C(=O)N1c1cccnc1 (some centres undefined),7.7,27.5,106
COC(=O)C1=C(C)N(c2cccc(C(C)=O)c2)C(=O)C1,12.4,23.5,459
COc1cc(C(=O)OCC(=O)N2CCCC2)cc2c1OCCO2,28.6,9.7,309
COCC(C)NC(=O)c1noc2c1CCc1cc(OC)ccc1-2 (centres undefined),11.8,23.6,182
COc1cc(/C=C(/C#N)c2ccccc2F)ccc1OCc1ccccc1,15,19.4,128
CCn1cc(CN(C)C(=O)/C=C/c2ccc([N+](=O)[O-])cc2)c(C)n1,18.8,7,170
CC(C)c1ccc(S(=O)(=O)N2CCC3(CC2)OCCO3)cc1,12.8,7.5,131
O=C(NNC(=O)c1ccc(-n2cncn2)c([N+](=O)[O-])c1)c1ccccc1,38.9,12.8,433
CCOC(=O)c1nnn(-c2nonc2-n2cccc2)c1CN1CCC(C(=O)OCC)CC1,26,24.1,183
COCCn1c(C)cc(C(=O)CSc2nnc(C3CC3)n2C2CC2)c1C,28.6,6.3,128
CC1CN(C2=CC(=O)CCC2)CC(C)O1 (centres undefined),12.8,13.7,181
Cn1ncc(Br)c1C(=O)N1CCCCCC1,11.2,8.7,153
C=C(C)CSc1cc(C)nc2c(-c3ccccc3)c(C)nn12,13.6,24.8,409
Cc1ccc(NC(=O)CN2C(=O)N/C(=C/c3ccc(C)s3)C2=O)cc1,35.7,14.1,424
C/C(=N\NC(=O)c1ccc(C(=O)N/N=C(\C)c2ccco2)o1)c1ccco1,23.4,20.3,243
Cc1ccc2sc(C)[n+](CCC(C)S(=O)(=O)[O-])c2c1 (centres undefined),8,22.4,176
COc1ccccc1N1CCN(C(=O)C2CCCN(S(=O)(=O)c3ccc(C)cc3)C2)CC1 (centres undefined),27.6,17.8,196
O=C(Cc1cccs1)Nc1cc(S(=O)(=O)N2CCCCC2)ccc1Cl,10.9,12,385
Cc1cc(SC(C)C(=O)NCC(=O)Nc2ccc(F)c(F)c2F)nc2ccccc12 (centres undefined),21.4,22,411
COc1ccc(C(CNCC(=O)Nc2ccccc2F)N(C)C)cc1 (centres undefined),9.9,21.4,154
CC1CCC(C(C)C)C(OC(=O)COC(=O)c2cc(O)ccc2N)C1 (centres undefined),16.7,14.3,284
CCOc1cccc(C(=O)Nc2ccccc2N2CCN(C(=O)C(C)C)CC2)c1,11.7,14.6,243
